These are yes or no findings as the source states them, for the method shown. In cells and extracts the contact can be indirect. Some entries that bind do so weakly or less than the wild type. Where a sequence is shown, tags or fusion partners need not be part of it.
What was measured:
Assay in all cases: co-IP; HT1080 cells stably expressing proHB-EGF, proTGF-α, proAR or proEPR, transiently transfected with FLAG-PLZF; 100 nM TPA for 1 h; IP with anti-EGFR ligand-CTF antibodies, blot with anti-FLAG
[1] = biological target: T1, proEPR (pro-epiregulin) stably expressed in HT1080 cells (UniProt O14944)
T1 sequence: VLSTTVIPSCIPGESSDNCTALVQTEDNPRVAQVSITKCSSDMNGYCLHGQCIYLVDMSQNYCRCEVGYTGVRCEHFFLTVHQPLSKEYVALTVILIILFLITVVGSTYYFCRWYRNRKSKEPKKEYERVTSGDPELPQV

By UniProt entry, the sequences of proteins in these tests, tags left out. Residues count along the entry.
UniProt Q99075, residues 20-208: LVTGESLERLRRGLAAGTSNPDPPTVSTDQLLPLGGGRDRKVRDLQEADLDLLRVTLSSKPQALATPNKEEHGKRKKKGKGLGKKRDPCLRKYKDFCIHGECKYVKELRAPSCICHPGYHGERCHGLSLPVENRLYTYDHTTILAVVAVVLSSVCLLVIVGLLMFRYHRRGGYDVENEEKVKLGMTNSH
UniProt P01135, residues 24-160: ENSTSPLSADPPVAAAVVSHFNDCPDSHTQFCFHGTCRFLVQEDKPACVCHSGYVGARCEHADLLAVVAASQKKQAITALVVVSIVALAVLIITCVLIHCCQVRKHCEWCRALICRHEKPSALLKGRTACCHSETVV

[2] = biological target: proHB-EGF stably expressed in HT1080 cells (UniProt Q99075)
[3] = biological target: proTGF-α stably expressed in HT1080 cells (UniProt P01135)

binding [1]: binds | binding [2]: binds | binding [3]: binds
B1: FLAG-tagged full length PLZF (promyelocytic leukemia zinc finger protein) (protein, UniProt Q05516 1-673)
chain: MDLTKMGMIQLQNPSHPTGLLCKANQMRLAGTLCDVVIMVDSQEFHAHRTVLACTSKMFEILFHRNSQHYTLDFLSPKTFQQILEYAYTATLQAKAEDLDDLLYAAEILEIEYLEEQCLKMLETIQASDDNDTEATMADGGAEEEEDRKARYLKNIFISKHSSEESGYASVAGQSLPGPMVDQSPSVSTSFGLSAMSPTKAAVDSLMTIGQSLLQGTLQPPAGPEEPTLAGGGRHPGVAEVKTEMMQVDEVPSQDSPGAAESSISGGMGDKVEERGKEGPGTPTRSSVITSARELHYGREESAEQVPPPAEAGQAPTGRPEHPAPPPEKHLGIYSVLPNHKADAVLSMPSSVTSGLHVQPALAVSMDFSTYGGLLPQGFIQRELFSKLGELAVGMKSESRTIGEQCSVCGVELPDNEAVEQHRKLHSGMKTYGCELCGKRFLDSLRLRMHLLAHSAGAKAFVCDQCGAQFSKEDALETHRQTHTGTDMAVFCLLCGKRFQAQSALQQHMEVHAGVRSYICSECNRTFPSHTALKRHLRSHTGDHPYECEFCGSCFRDESTLKSHKRIHTGEKPYECNGCGKKFSLKHQLETHYRVHTGEKPFECKLCHQRSRDYSAMIKHLRTHNGASPYQCTICTEYCPSLSSMQKHMKGHKPEEIPPDWRIEKTYLYLCYV
